From PubChem BioAssay AID2685 (National Center for Advancing Translational Sciences (NCATS), 2010)
The list shows a part of the results. The main result of the screen is listed elsewhere. These columns were measured beside it and carry no call. The list favours compounds with an active or inconclusive main result. The note in brackets gives the kind of curve behind each potency; many fits are weak.

Assay: qHTS Assay for Lipid Storage Modulators in Drosophila S3 Cells;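 on cell number change: cells counted by Cell Tracker Red CMTPX staining in the red channel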
Details: BODIPY lipid droplet fluorescence, 18-24 h; for cell number change: measured here: cell count max response, cells fed with added oleic acid
In short: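 Drosophila S3 cells loaded with oleic acid (400 uM, as added) and compounds at several concentrations; lipid droplets imaged by 488-nm laser-scanning cytometry, 500–530 nm intensity and object ratio to cell channel. Percent activity normalized to 20 uM Triacsin C.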

[1] = measured here: lipid fluorescence (Fed channel) AC50, cells fed with added oleic acid
[2] = measured here: cell number channel AC50, cells fed with added oleic acid

Compound: COc1ccccc1CCc1nnc(CCC(=O)NC(C)Cc2cccc(C)n2)o1 (stereo not drawn)
- cell number change: 23.2%
- AC50 [1]: 1.84 µM [rising, full curve, poor fit]

Compound: COc1ccccc1N(O)C1CC(=O)N(c2ccc(Br)cc2)C1=O (stereo not drawn)
- cell number change: -37.1%
- AC50 [2]: 2.31 µM [falling, partial curve, poor fit]
- AC50 [1]: 29.1 µM [falling, single point]

Compound: Cc1ccc(CNC(=O)CCS(=O)(=O)c2ccc3c(c2)NC(=O)C(C)S3)cc1 (stereo not drawn)
- cell number change: 14.1%
- AC50 [1]: 1.84 µM [rising, single point]

Compound: CCOc1ccc(NC(=O)NCCN2CCN(c3ccccc3F)CC2)cc1
- cell number change: -4.58%
- AC50 [1]: 0.13 µM [falling, full curve, poor fit]

Compound: O=C(CSc1ncnc2ccccc12)Nc1ccc(N2CCOCC2)cc1
- cell number change: 3.72%
- AC50 [1]: 2.06 µM [rising, single point]

Compound: COC(=O)C1=CN(C2CC2)C=C(C(=O)OC)C1c1ccccc1OC
- cell number change: 0.0678%
- AC50 [1]: 3.26 µM [rising, full curve]

Compound: Clc1ccccc1-c1nnc2sc(-c3ccncc3)nn12
- cell number change: -15.5%
- AC50 [1]: 0.184 µM [rising, full curve]

Compound: O=C(COC(=O)c1ccc(OC(F)F)cc1)NCCCN1CCCC1=O
- cell number change: 40.2%
- AC50 [2]: 20.6 µM [rising, single point]

Compound: Cc1nnc(SC(C)C(=O)N(C)C2CCCCC2)n1N (stereo not drawn)
- cell number change: -1.12%
- AC50 [1]: 1.64 µM [rising, partial curve]

Compound: COc1ccc2oc(=O)c(C(=O)Nc3ccccc3C)cc2c1
- cell number change: -3.65%
- AC50 [1]: 29.1 µM [falling, single point]

Compound: CNC(=O)CCn1nc(-c2ccc(Cl)cc2)c2ccccc2c1=O
- cell number change: 4.3%
- AC50 [1]: 29.1 µM [rising, single point]

Compound: CC1(C)CC(=O)C=C(Nc2ccc(C(=O)O)c(O)c2)C1
- cell number change: 21.6%
- AC50 [1]: 29.1 µM [rising, single point]

Compound: CN(C)c1ccc(S(=O)(=O)NCC(=O)OCC(=O)c2ccc[nH]2)cc1[N+](=O)[O-]
- cell number change: -7.64%
- AC50 [1]: 7.31 µM [falling, single point]

Compound: CCN(CC)S(=O)(=O)c1cc(NC(=O)CO/N=C(\N)c2ccccc2Cl)ccc1C
- cell number change: 35.7%
- AC50 [2]: 2.06 µM [rising, full curve]
- AC50 [1]: 20.6 µM [falling, partial curve, poor fit]

Compound: CCCCCCCCCCS(=O)(=O)N/N=C/c1ccc([N+](=O)[O-])cc1
- cell number change: -72.7%
- AC50 [2]: 23.1 µM [falling, partial curve]

Compound: CCc1c(C)nc(SCCOc2ccc(OC)cc2)[nH]c1=O
- cell number change: -0.566%
- AC50 [1]: 29.1 µM [rising, single point]

Compound: COc1ccc(N2C(=O)CCC(C(=O)NCCN3CCOCC3)C2c2ccc(OC)c(OC)c2)cc1 (stereo not drawn)
- cell number change: 2.7%
- AC50 [1]: 0.0731 µM [falling, full curve, poor fit]

Compound: COc1ccc(C(=O)Nc2nnc(S(=O)(=O)N3CCOCC3)s2)cc1
- cell number change: -12.7%
- AC50 [1]: 0.58 µM [falling, single point]

Compound: COc1ccc(NC(=O)CCN2CCCCC2)cc1
- AC50 [1]: 16.4 µM [falling, partial curve]

Compound: N#CC1=C(N)OC2=C(CC/C2=C\c2ccccc2)C1c1ccccc1 (stereo not drawn)
- cell number change: 34.9%
- AC50 [2]: 0.0517 µM [rising, full curve, poor fit]

Compound: Cc1occc1C(=O)NNC(=S)Nc1ccccc1C(F)(F)F
- cell number change: -6.77%
- AC50 [1]: 0.092 µM [rising, full curve, poor fit]

Compound: COc1ccc(C2C(C(C)=O)=C(O)C(=O)N2c2nccs2)c(OC)c1 (stereo not drawn)
- cell number change: -41.2%
- AC50 [2]: 3.66 µM [falling, full curve, poor fit]
- AC50 [1]: 5.17 µM [falling, single point]

Compound: O=S(=O)(c1cc(Cl)ccc1Cl)N1CCNCC1
- cell number change: -0.996%

Compound: O=C(O)c1ccc(CNc2ccccc2C(=O)O)cc1
- AC50 [2]: 5.17 µM [falling, partial curve]
- AC50 [1]: 5.17 µM [falling, partial curve]

Compound: Cc1ccccc1C(=O)N(C)c1ccccc1C(=O)NCc1ccccc1
- cell number change: 24.2%
- AC50 [1]: 6.31 µM [rising, single point]

Compound: Cc1ccc(CNc2nc(-c3cccs3)nc3ccccc23)cc1
- cell number change: 12.2%
- AC50 [2]: 2.31 µM [rising, single point]
- AC50 [1]: 2.59 µM [rising, full curve]

Compound: O=C(CCc1ccc(S(=O)(=O)N2CCOCC2)cc1)OCc1nc2ccccc2s1
- cell number change: -5.74%
- AC50 [2]: 0.092 µM [falling, full curve, poor fit]

Compound: Cn1c(-c2cc3ccccc3oc2=O)nc2ccccc21
- cell number change: -8.88%
- AC50 [1]: 0.651 µM [falling, single point]

Compound: O=C1CCCc2c1cc(C(=O)Nc1ccc(Cl)cn1)c(=O)n2-c1ccccc1
- cell number change: 21.9%
- AC50 [1]: 3.66 µM [rising, single point]

Compound: CCOC(=O)c1ccc(NC(=O)c2ccco2)cc1
- cell number change: -3.02%
- AC50 [1]: 18.4 µM [falling, single point]

Compound: COc1ccc(C)cc1NC(=S)NN1CCN(C)CC1
- cell number change: 0.896%

Compound: CC(C)(C)c1ccc(NC(=O)C2=CN3CCS(=O)(=O)N=C3C=C2)cc1
- cell number change: 17%
- AC50 [1]: 3.26 µM [rising, single point]

Compound: Cc1ccc(Nc2nc(-c3cccnc3)cs2)cc1Cl
- cell number change: -19.2%
- AC50 [1]: 29.1 µM [rising, single point]

Compound: O=S(=O)(c1ccc(Cl)cc1)c1cnc2ccccc2n1
- AC50 [1]: 29.1 µM [falling, partial curve, poor fit]

Compound: COc1ccc(-c2cc(C)no2)cc1S(=O)(=O)N1CCN(c2ccc([N+](=O)[O-])cc2)CC1
- cell number change: 9.16%
- AC50 [1]: 0.651 µM [rising, partial curve]

Compound: CCN(Cc1ccncc1)C(=O)C1CCC(=O)N(Cc2ccc(Cl)cc2)C1 (stereo not drawn)
- cell number change: 27.2%
- AC50 [1]: 9.2 µM [rising, partial curve]

Compound: COc1ccc(C(=O)OCN2C(=O)c3ccccc3C2=O)cc1
- cell number change: 9.41%
- AC50 [1]: 35.5 µM [rising, single point]

Compound: C[C@@H]1CC=C[C@H]2[C@H]1C(=O)N(Cc1ccccc1)[C@H]2c1ccc(-c2ccoc2)cc1F
- cell number change: 19.3%
- AC50 [1]: 20.6 µM [rising, single point]

Compound: O=C(O)c1ccc(Nc2ccc3nonc3c2[N+](=O)[O-])cc1
- cell number change: -2.35%
- AC50 [1]: 29.1 µM [rising, single point]

Compound: O=C(/C=C/c1ccco1)NC(=S)Nc1cccc(C(=O)O)c1
- cell number change: -7.41%
- AC50 [1]: 6.51 µM [falling, single point]

Compound: CCC(=O)Oc1cccc(C(=O)Nc2ccc(-c3nnc(-c4ccco4)o3)cc2)c1
- cell number change: -46.6%
- AC50 [2]: 29.1 µM [falling, single point]

Compound: CN(C)c1ccc(-c2nn3c(-c4cccnc4)nnc3s2)cc1
- cell number change: -10.9%
- AC50 [1]: 0.092 µM [rising, full curve, poor fit]

Compound: COc1ccc(S(=O)(=O)N2CC(C)N(C(=O)N(C)C)C2C(C)C)cc1 (stereo not drawn)
- cell number change: 23.3%

Compound: N#CC1=C(S)N(c2ccccc2)C(c2ccc(-c3ccc(Cl)c(Cl)c3)o2)NC1=O (stereo not drawn)
- AC50 [2]: 7.31 µM [rising, single point]
- AC50 [1]: 23.1 µM [rising, partial curve]

Compound: O=C(Nc1cccc([N+](=O)[O-])c1)Nc1ccc2c(c1)CCC2
- cell number change: -2.59%
- AC50 [1]: 2.59 µM [falling, partial curve, poor fit]

Compound: COc1ccc(Cl)cc1C(=O)NC(=S)Nc1cc(-c2nc3ccccc3[nH]2)ccc1C
- AC50 [2]: 0.116 µM [falling, full curve, poor fit]
- AC50 [1]: 0.259 µM [falling, full curve]

Compound: Nc1nnc(C2CCCC2)s1
- cell number change: 3.06%
- AC50 [1]: 23.1 µM [falling, partial curve]

Compound: COc1cc2cc(C#N)c(SCC(=O)Nc3cc(C)on3)nc2cc1OC
- cell number change: 31.3%
- AC50 [2]: 16.4 µM [rising, single point]

Compound: COc1ccc(CCN2CC3=C(C2=O)C(c2ccccc2)NC(=O)N3C)cc1OC (stereo not drawn)
- cell number change: 27.8%
- AC50 [1]: 29.1 µM [rising, single point]

Compound: CC(=O)/C=C1\SC(CC(=O)O)C(=O)N1c1ccccc1 (stereo not drawn)
- cell number change: 10.9%
- AC50 [1]: 0.58 µM [rising, full curve, poor fit]

Compound: O=C(c1ccco1)N1CCN(C(=O)N2CCCC2)CC1
- cell number change: -41.8%
- AC50 [2]: 0.13 µM [falling, full curve]

Compound: CNC(=O)CSc1ncnc2c1cnn2-c1ccccc1
- cell number change: 11.8%
- AC50 [1]: 2.59 µM [rising, partial curve]

Compound: CCCCc1nc2sc3c(SCCN(C)C)ncnc3c2c2c1CCC2
- AC50 [2]: 0.164 µM [falling, full curve]
- AC50 [1]: 0.092 µM [falling, full curve]

Compound: CCOC(=O)c1c2c3c(cccc3[nH]c1=O)C(=O)c1ccccc1-2
- cell number change: 32.3%
- AC50 [2]: 0.0058 µM [rising, full curve, poor fit]

Compound: CC1CCCCN1C(=O)COc1ccc(S(=O)(=O)N2CCCC2)cc1[N+](=O)[O-] (stereo not drawn)
- cell number change: 0.0695%

Compound: C/C(CC(=O)NCc1ccc(Cl)cc1)=N\NC(=O)Cc1ccccc1
- cell number change: 25.2%
- AC50 [1]: 13 µM [rising, partial curve, poor fit]

Compound: CCc1ccc(C(=O)/C=C2\Sc3ccccc3NC2=O)cc1
- cell number change: -4.75%
- AC50 [1]: 5.17 µM [rising, partial curve]

Compound: COc1cc(/C=N/NC(=O)C(Cc2c[nH]c3ccccc23)NC(=O)OCC(C)C)cc([N+](=O)[O-])c1OCc1ccccc1 (stereo not drawn)
- cell number change: -0.241%
- AC50 [1]: 0.00411 µM [rising, full curve, poor fit]

Compound: O=C1Nc2ccccc2O/C1=C\c1c(F)cccc1Cl
- cell number change: 38.7%
- AC50 [2]: 0.291 µM [rising, full curve]

Compound: Nc1c(C(=O)CSc2nnc(N3CCOCC3)n2-c2cccc(F)c2)c(=O)[nH]c(=O)n1C1CC1
- cell number change: 32.2%
- AC50 [2]: 0.92 µM [falling, full curve]
